# Data as given in PubChem BioAssay AID504786 (Drosophila RNAi Screening Center, 2011)
# Purpose: 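Fly genes required for HIF-dependent transcription when hypoxia is mimicked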 (primary screen)
# Cell system: Drosophila S2 cells with a stable HIF luciferase reporter
# Reagents: long dsRNA against Drosophila genes, about 0.2 µg dsRNA per well of a 384-well plate
# Timing: three days of knock-down, then 20 h of DFO before reading
# Treatment: desferrioxamine (DFO) at 100 µM, an iron chelator that mimics hypoxia, for 20 h
# Read-out: 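Firefly luciferase driven by the mouse ldh-a hypoxia-response element, measured after 20 h of 100 µM DFO; z-scores per plate, higher means more signal lost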
# Direction: z-score: higher = stronger loss of HIF reporter signal
# The screen tested about 21,000 reagents; below is a random part of those with a known target gene and a result. 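Primary screen; positive scores mean lost reporter signal, so the sign may be inverted from the usual convention.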 Names joined by + are all predicted targets of the reagent. Not all columns of the deposit are shown. No sequences are given here.
target,dsRNA,"z-score, replicate 1"
Mipp2 (Multiple inositol polyphosphate phosphatase 2),DRSC18682,-0.3
S-Lap8 (Sperm-Leucylaminopeptidase 8),DRSC06870,-0.3
Bbd (Bombardier),DRSC06709,-0.1
CG1792,DRSC15290,-0.2
Cyp6a18 (Cytochrome P450 6a18),DRSC16632,-0.5
haf (hattifattener),DRSC00381,-0.3
CG9970,DRSC08644,-0.3
CG10804,DRSC17764,-0.2
RabX1,DRSC04678,-0.3
PolH (DNA polymerase eta),DRSC11800,-0.2
CG9782,DRSC19145,0.8
CG9782,DRSC20209,-0.3
CG9962,DRSC00739,-0.2
CG3698,DRSC11749,-0.3
CG8490,DRSC07194,-0.1
SF2 (Splicing factor 2),DRSC16845,5.4
phr (photorepair),DRSC07662,0
gammaTub37C (gamma-Tubulin at 37C),DRSC03535,-0.3
CG31913,DRSC00892,-0.2
Kdm5 (Lysine demethylase 5),DRSC03133,-0.4
CG32206,DRSC09602,-0.3
CG32206,DRSC10094,-0.3
CG32206,DRSC10095,-0.2
CG32206,DRSC10096,-0.3
CG32206,DRSC11080,-0.3
CG8064,DRSC16373,-0.1
Srg3 (Sting-regulated gene 3),DRSC08984,-0.1
Srg3 (Sting-regulated gene 3),DRSC10178,-0.1
CG14566,DRSC11727,-0.4
Dcr-2 (Dicer-2),DRSC06992,-0.3
CG1116,DRSC12166,-0.1
Saysd1 (SAYSVFN motif domain containing 1),DRSC14664,-0.3
MstProx + Mst84Da,DRSC12597,-0.5
mwh (multiple wing hairs),DRSC08382,-0.1
CG4752,DRSC04486,-0.4
LysE (Lysozyme E),DRSC08675,-0.4
Tsp42Ef (Tetraspanin 42Ef),DRSC06191,-0.3
"Grx1t (Glutaredoxin 1, testis-specific)",DRSC04530,-0.4
CG34406 (retired record),DRSC00523,-0.3
CG34406 (retired record),DRSC00606,-0.3
atk (artichoke),DRSC11418,-0.2
atk (artichoke),DRSC11769,-0.2
BRWD3,DRSC15369,1.9
BRWD3,DRSC16032,1.8
CG13605,DRSC14608,-0.2
CG7208,DRSC16212,-1
CG9630,DRSC16527,-0.3
Prosbeta3 (Proteasome beta3 subunit),DRSC16801,6.1
drongo,DRSC00814,-0.2
Abp1 (Actin binding protein 1),DRSC09693,0.2
Nepl12 (Neprilysin-like 12),DRSC16411,-0.4
Bet3 (Blocked early in transport 3),DRSC10388,-0.5
CG32708,DRSC18411,-0.1
"Fis1 (Fission, mitochondrial 1)",DRSC07772,-0.4
CG32733 (retired record),DRSC17481,0.6
Dscam3 (Down syndrome cell adhesion molecule 3),DRSC14525,-0.2
Dscam3 (Down syndrome cell adhesion molecule 3),DRSC16376,-0.5
Son (Son RNA binding protein),DRSC16400,-0.3
epsilonCOP (Coat Protein (coatomer) epsilon),DRSC02003,-0.4
CG7369,DRSC11822,-0.3
CG6051,DRSC15956,0.1
CG31496,DRSC12547,-0.4
TBPH (TAR DNA-binding protein-43 homolog),DRSC04660,-0.4
CG5334,DRSC19941,-0.3
RpL9 (Ribosomal protein L9),DRSC03418,4.5
CG9377,DRSC03217,-0.3
CG14770,DRSC17947,-0.2
SP1029,DRSC16848,-0.4
Prosbeta5 (Proteasome beta5 subunit),DRSC07517,6.2
CG10638,DRSC09762,-0.2
Ltn1 (Listerin E3 ubiquitin protein ligase 1),DRSC11056,-0.3
Ltn1 (Listerin E3 ubiquitin protein ligase 1),DRSC11058,-0.2
Fign (Fidgetin),DRSC00592,-0.3
CG9649,DRSC16534,-0.2
Tgi (Tondu-domain-containing Growth Inhibitor),DRSC09793,-0.3
Tgi (Tondu-domain-containing Growth Inhibitor),DRSC09794,-0.5
CG32483,DRSC07902,-0.2
GstD10 (Glutathione S transferase D10),DRSC15346,-0.3
smal (smoke alarm),DRSC02318,-0.3
smal (smoke alarm),DRSC02319,-0.4
smal (smoke alarm),DRSC02320,-0.4
smal (smoke alarm),DRSC02504,-0.3
Grl65a (Gustatory receptor-like 65a),DRSC08837,-0.3

Quoted from the listing (6 entries):
target,dsRNA,"z-score, replicate 1"
CG31913,DRSC00892,-0.2
Kdm5 (Lysine demethylase 5),DRSC03133,-0.4
CG32206,DRSC09602,-0.3
CG32206,DRSC10094,-0.3
CG32206,DRSC10095,-0.2
CG32206,DRSC10096,-0.3
